What follows is the remainder of the data, with few or none of the targets with a hit. Single values of this set are uncertain. Only a part is listed here, and it is no random draw.

Chains of the proteins cited; added tags and fusions are not shown. Lines headed by an entry give the natural chain unless they say otherwise; changes in a name come on top.
UniProt P78527, whole entry, looked up: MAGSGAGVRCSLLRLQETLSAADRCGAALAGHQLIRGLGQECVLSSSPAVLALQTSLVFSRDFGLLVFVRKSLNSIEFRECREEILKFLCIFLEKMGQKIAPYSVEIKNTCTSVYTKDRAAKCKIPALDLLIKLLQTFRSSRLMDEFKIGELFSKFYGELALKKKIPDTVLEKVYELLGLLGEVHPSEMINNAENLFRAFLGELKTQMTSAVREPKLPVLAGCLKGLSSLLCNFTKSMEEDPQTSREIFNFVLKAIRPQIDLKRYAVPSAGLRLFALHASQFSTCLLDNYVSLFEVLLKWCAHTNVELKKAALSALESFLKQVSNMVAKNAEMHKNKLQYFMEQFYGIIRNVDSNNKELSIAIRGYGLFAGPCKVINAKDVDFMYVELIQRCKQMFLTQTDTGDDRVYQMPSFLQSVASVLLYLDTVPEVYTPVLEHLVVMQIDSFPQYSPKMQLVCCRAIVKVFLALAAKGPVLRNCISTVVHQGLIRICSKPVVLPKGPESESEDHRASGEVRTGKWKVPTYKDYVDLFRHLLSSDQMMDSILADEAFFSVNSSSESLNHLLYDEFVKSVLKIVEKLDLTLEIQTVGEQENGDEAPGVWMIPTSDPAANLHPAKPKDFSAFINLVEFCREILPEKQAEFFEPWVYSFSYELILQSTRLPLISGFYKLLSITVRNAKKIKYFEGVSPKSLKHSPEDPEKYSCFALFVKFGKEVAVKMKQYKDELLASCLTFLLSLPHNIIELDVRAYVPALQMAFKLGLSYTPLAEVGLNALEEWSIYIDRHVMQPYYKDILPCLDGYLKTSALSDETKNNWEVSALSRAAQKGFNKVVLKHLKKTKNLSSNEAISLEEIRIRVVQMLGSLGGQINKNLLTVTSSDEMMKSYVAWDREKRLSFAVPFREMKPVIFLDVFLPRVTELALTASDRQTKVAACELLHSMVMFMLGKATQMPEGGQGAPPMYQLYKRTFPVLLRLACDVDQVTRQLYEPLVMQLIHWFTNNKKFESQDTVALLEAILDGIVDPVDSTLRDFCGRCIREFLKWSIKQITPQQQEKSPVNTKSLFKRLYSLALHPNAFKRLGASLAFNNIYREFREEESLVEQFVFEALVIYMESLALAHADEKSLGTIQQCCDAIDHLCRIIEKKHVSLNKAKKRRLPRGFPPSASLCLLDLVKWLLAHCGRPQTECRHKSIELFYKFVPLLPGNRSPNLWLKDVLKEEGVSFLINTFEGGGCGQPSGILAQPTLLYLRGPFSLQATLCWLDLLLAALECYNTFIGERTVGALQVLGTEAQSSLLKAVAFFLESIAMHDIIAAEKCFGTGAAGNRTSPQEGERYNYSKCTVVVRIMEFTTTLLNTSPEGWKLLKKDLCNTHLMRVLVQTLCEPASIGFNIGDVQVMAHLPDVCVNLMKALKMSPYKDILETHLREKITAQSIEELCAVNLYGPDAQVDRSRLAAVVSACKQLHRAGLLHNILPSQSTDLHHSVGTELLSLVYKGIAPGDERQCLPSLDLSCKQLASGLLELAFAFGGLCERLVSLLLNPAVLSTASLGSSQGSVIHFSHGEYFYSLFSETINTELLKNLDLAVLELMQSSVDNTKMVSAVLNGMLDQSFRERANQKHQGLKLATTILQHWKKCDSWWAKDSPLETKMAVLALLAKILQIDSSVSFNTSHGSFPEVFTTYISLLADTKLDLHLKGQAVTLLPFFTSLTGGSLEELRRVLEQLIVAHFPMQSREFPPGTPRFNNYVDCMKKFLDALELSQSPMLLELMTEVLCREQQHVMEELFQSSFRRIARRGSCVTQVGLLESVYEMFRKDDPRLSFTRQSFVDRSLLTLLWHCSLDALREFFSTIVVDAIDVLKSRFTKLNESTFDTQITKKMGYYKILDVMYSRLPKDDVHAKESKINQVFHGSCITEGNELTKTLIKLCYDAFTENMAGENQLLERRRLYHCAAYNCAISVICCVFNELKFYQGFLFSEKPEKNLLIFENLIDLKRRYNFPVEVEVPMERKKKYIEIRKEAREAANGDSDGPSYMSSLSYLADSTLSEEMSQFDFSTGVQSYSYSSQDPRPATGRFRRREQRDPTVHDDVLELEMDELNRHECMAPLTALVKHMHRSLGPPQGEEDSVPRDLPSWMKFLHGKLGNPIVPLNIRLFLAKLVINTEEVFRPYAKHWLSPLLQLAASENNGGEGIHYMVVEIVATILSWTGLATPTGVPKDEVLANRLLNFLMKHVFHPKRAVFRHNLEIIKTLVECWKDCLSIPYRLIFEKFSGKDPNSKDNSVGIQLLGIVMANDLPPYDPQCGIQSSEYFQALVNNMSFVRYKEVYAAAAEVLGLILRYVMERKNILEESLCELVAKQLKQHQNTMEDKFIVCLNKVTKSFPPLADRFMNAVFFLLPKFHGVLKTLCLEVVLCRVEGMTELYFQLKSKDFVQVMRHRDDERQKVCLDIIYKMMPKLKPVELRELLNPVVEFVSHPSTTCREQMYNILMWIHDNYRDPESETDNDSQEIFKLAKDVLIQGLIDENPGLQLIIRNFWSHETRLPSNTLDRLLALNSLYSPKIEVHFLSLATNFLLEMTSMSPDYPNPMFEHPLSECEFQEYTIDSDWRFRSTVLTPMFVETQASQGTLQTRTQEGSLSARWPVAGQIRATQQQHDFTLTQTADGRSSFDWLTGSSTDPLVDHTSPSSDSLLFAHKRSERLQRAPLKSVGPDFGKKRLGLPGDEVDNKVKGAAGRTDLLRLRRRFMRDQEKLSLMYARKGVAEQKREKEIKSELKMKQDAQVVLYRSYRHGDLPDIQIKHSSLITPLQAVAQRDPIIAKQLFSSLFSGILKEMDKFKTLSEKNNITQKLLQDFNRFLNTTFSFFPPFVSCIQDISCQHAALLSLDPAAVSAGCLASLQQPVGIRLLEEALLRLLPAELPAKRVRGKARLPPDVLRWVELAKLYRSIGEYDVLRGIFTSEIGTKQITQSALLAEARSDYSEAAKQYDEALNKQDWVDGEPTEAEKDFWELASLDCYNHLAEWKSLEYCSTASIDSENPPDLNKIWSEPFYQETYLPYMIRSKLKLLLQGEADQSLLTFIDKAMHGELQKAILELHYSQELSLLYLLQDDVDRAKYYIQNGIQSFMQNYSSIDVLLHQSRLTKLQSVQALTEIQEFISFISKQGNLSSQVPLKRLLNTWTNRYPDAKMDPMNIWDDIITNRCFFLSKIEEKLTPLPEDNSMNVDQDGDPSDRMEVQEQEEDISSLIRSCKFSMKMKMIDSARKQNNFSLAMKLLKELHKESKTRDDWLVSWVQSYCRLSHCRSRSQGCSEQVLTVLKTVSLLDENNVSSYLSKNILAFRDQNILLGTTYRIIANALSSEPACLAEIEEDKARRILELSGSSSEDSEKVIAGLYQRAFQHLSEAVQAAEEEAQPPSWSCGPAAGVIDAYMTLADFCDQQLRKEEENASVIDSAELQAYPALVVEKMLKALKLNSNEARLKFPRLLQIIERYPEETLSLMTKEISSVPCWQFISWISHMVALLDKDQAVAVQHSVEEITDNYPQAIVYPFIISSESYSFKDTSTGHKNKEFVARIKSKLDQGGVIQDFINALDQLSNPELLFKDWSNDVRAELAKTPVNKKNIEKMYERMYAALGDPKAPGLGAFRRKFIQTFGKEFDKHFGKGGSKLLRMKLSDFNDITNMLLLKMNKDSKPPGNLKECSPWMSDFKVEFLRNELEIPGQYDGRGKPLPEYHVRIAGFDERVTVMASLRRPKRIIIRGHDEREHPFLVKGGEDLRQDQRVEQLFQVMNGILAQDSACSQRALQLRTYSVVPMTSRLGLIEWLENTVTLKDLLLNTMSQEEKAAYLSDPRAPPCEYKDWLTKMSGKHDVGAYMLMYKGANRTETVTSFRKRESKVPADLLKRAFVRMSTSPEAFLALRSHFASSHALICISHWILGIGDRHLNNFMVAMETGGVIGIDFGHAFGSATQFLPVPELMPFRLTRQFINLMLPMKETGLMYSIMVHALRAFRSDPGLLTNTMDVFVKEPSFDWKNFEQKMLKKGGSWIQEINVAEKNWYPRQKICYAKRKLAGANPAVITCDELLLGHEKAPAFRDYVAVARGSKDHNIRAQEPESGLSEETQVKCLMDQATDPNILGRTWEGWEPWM
UniProt P62937, whole entry, looked up: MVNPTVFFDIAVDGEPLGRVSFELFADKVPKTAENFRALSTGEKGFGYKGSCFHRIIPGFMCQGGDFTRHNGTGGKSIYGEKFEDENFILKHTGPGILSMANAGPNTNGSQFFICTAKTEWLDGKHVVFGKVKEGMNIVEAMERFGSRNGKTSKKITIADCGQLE
UniProt Q00341: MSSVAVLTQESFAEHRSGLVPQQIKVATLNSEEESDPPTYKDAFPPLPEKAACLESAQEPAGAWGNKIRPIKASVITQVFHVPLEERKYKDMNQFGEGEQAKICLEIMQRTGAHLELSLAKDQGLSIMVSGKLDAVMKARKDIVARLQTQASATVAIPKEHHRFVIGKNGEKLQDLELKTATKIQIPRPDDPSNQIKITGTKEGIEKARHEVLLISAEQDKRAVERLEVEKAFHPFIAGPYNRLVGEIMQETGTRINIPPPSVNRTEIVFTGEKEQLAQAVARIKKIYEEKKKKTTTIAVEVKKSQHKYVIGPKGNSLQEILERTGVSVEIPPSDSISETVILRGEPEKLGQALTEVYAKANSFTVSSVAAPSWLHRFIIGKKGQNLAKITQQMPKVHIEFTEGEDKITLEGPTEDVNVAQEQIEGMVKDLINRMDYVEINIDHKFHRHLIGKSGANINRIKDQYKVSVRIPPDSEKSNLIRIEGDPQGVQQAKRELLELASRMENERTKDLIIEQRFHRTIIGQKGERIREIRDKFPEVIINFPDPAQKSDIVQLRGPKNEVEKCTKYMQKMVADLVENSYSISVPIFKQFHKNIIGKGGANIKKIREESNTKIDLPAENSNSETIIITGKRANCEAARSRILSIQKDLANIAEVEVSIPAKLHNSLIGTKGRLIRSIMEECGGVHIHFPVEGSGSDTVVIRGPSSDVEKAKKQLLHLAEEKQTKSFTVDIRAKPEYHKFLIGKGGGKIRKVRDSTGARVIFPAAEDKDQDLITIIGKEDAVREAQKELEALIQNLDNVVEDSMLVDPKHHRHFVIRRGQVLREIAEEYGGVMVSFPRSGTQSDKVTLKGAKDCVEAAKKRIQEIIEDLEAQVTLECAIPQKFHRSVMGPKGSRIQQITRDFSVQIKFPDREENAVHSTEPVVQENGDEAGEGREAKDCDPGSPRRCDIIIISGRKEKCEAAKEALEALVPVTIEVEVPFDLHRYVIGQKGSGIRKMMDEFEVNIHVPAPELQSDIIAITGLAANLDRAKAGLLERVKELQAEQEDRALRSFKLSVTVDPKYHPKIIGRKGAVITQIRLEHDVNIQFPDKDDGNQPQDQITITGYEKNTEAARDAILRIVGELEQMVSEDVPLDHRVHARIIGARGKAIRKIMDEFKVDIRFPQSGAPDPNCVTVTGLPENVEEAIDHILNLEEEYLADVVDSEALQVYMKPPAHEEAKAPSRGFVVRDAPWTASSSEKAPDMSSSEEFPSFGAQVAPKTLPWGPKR
UniProt Q00839, whole entry, looked up: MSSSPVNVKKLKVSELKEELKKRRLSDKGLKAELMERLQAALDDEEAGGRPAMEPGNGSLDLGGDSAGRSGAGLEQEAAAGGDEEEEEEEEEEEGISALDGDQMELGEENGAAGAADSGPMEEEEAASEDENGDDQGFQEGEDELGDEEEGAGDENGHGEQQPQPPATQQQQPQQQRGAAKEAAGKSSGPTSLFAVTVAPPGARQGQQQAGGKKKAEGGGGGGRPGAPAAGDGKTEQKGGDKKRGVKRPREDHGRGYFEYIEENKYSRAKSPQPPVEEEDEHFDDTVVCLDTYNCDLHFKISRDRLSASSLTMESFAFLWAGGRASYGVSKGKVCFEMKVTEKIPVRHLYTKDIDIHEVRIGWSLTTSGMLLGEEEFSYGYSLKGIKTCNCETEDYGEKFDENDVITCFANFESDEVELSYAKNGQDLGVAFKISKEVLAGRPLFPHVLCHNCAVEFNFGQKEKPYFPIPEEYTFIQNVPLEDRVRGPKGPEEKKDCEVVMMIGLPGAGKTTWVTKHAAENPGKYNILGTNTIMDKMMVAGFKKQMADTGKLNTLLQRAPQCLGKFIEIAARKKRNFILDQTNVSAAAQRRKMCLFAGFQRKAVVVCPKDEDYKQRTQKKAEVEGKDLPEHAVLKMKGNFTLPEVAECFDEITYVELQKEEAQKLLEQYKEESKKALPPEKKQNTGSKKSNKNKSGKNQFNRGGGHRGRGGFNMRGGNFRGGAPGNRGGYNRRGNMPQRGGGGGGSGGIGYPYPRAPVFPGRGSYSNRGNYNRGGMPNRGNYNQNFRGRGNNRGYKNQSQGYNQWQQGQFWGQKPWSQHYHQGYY
UniProt P63208, whole entry, looked up: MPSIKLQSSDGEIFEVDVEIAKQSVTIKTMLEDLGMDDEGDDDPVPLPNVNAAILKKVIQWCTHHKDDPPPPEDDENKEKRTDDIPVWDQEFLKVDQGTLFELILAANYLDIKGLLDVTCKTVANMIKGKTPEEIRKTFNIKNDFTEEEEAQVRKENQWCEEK

Compound in this experiment: COC(=O)/C=C/c1ccccc1 [methyl cinnamate]
Kind of experiment: log2 ratio of iodoacetamide-alkyne labeling of the cysteine site, DMSO over compound (competition); higher = stronger covalent engagement of the cysteine by the compound, active = 1 or more. The settings on record: 500 µM; treatment time 1 h; system: HEK293T cell lysate. Put shortly:
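HEK293T lysate (2 mg/mL) was treated with DMSO or electrophile (500 µM, 1 h, ambient temperature), then iodoacetamide alkyne (1 h), clicked to sCIP-TMT reagents, pooled, trypsin-digested overnight at 37 °C, streptavidin-enriched and acid-eluted. Peptides were run on Orbitrap Eclipse LC-MS/MS with FAIMS and quantified in FragPipe. The log2 competition ratio per cysteine is mean control-channel over mean compound-channel reporter intensity. Duplicate channels and three replicates were used, and cysteines quantified in only one replicate were excluded.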
Turning to MRPS5 C211 (UniProt P82675), the “log2 ratio of iodoacetamide-alkyne labeling” value (“log2 ratio” below) is inactive: 0.051.
Then HMGCS1 C268 (UniProt Q01581), with inactive: 0.0842.
Turning to UniProt P62701_C41, the “log2 ratio” value is inactive: -0.0895.
As to MRPS9 C353 (UniProt P82933), the “log2 ratio” value was inactive: 0.201.
Regarding UniProt Q02040_C579, the “log2 ratio” value was inactive: 0.543.
For UniProt P78527_C1312, the “log2 ratio” value was inactive: 0.142.
As for NFKB2 C57 (UniProt Q00653), the “log2 ratio” value was inactive: 0.184.
Then UniProt P78368_C54, with inactive: 0.0383; and UniProt P78527_C1919, with inactive: 0.174; and PPIA C52 (UniProt P62937), with inactive: 0.14.
For UniProt P78527_C478 the value was inactive: 0.415.
Then UniProt P62263_C54, with inactive: -0.0249.
Turning to UniProt P78527_C2469, the “log2 ratio” value is inactive: 0.365.
Then FOXK2 C210 (UniProt Q01167), with inactive: -0.386; and UniProt P62304_C46, with inactive: 0.207.
For UniProt P62987_C115 the value was inactive: 0.207; for UniProt P98164_C4047, inactive: 0.0445; for UniProt P62280_C131, inactive: 0.162.
Then UniProt P68363_C347, with inactive: 0.166; and SORD C120 (UniProt Q00796), with inactive: 0.0887; and CCT2 C535 (UniProt P78371), with inactive: 0.0134.
In the case of FABP5 C120 (UniProt Q01469), the “log2 ratio” value was inactive: -0.055.
Take TPM4 C247 (UniProt P67936): the “log2 ratio” value is inactive: 0.0604.
Then CCT2 C289 (UniProt P78371), with inactive: 0.311; and UniProt Q00341_C636, with inactive: 0.312; and UniProt P62318_C20, with inactive: -0.0218.
On to HNRNPU C648 (UniProt Q00839), for which the “log2 ratio” value was inactive: -0.112.
Then UniProt Q00341_C878, with inactive: 0.0747.
Then CAP1 C93 (UniProt Q01518), with inactive: 0.109.
For EXOSC10 C651 (UniProt Q01780) the value was inactive: 0.124; for UniProt P63244_C207, inactive: 0.0966.
SKP1 C160 (UniProt P63208): the “log2 ratio” value is inactive: 0.27.
For UniProt P84103_C10 the value was inactive: 0.0731.
For UniProt P78527_C3781 the value was inactive: 0.0515.
For UniProt P78527_C630 the value was inactive: 0.338.
Consider CDC42EP1 C161 (UniProt Q00587), for which the “log2 ratio” value is inactive: 0.044.
For UniProt P78527_C1229 the value was inactive: -0.356.

The values above are taken from the supplement of paper PMC11006884.
